These results are taken from PMC7862700.

The entries are a selection whose mix differs from that of the whole data set. For part of these data: At the low end of the ranking, values are background and their order means little. Some of the results follow. For part of these data: Construct or isoform of the protein are uncertain.

In the first test the target is T1, GABPA (UniProt Q06546).
T1 sequence: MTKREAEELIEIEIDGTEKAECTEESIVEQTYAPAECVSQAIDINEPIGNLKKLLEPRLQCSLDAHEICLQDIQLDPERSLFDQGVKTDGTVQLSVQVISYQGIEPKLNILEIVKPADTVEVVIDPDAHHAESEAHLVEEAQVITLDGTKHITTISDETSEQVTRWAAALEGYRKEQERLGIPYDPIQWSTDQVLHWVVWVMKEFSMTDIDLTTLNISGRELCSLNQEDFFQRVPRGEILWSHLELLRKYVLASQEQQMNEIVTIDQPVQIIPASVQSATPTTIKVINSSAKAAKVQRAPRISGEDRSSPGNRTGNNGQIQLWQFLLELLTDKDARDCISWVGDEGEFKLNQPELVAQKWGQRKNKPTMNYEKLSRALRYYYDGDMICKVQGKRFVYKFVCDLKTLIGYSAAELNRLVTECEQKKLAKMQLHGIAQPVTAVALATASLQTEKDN
Put plainly: DAPPL (digital affinity profiling via proximity ligation, sequencing). To be noted: 10 mM Tris-HCl pH 7.5, 50 mM NaCl, 1 mM DTT, 4% glycerol, room temperature, 30 min; GST-TFs on glutathione beads, 16-mer random dsDNA library, 0.1% …; high values mean tight binding; double strand, one strand shown; scale: fold enrichment (6-mer frequency, TF over GST control).
As for TATACA, the binding signal is 1.42.
The sequence ACCCTC gave a binding signal of 1.15.
Turning to CCTTAC, the binding signal came out at 1.37.
Sequence AACTCT registered a binding signal of 1.31.
Still for that read-out and setting: in the case of CACGTA it was 1.23; in that of AGATGA, 0.995.
ACATGC gave a binding signal of 1.33.
Consider CGTCCA, for which the binding signal was 1.04.
For GTTATA, the binding signal is 0.997.
The sequence AAGCGG registered a binding signal of 1.11.
AGGTTT: the binding signal worked out at 1.08.
In the case of TTGGCT, the binding signal turned out to be 0.978.
In turn, TCTCTT yielded a binding signal of 1.45.
Sequence GATGCG registered a binding signal of 1.16.
The sequence CGGTTC returned a binding signal of 1.19.
Still for that read-out and setting: next, TGCGCA: 1.07; AGTGTT: 1.14.
The same measure, in the same setting: next, CAAATC: 0.994.
The sequence GCTACA gave a binding signal of 1.22.
The sequence TTCCGG returned a binding signal of 5.16.
For the sequence GAATGC, the binding signal is 0.95.
Regarding CCGCAA, the binding signal amounted to 1.36.
As for TATCAC, the binding signal was determined as 1.04.
Sequence ACCCTG registered a binding signal of 1.06.
GGTTGT registered a binding signal of 0.783.
The sequence TCATAC showed a binding signal of 1.09.
GTACAC showed a binding signal of 1.18.
As to CCTTAA, the binding signal amounted to 1.27.
For the sequence AGGATT, the binding signal turned out to be 0.924.
For ATATAA, the binding signal was 1.2.
With CACACA, the binding signal came to 1.14.
Regarding TACACT, the binding signal is 1.51.
For AGTCCT, the binding signal is 0.978.
Sequence CATGTA had a binding signal of 0.978.
Sequence TTATAT came in with a binding signal of 1.39.
Turning to TTGGGC, the binding signal turned out to be 1.01.
On to TCCATT, for which the binding signal amounted to 1.3.
For TGACGG, the binding signal is 0.93.
On the same count and under the same terms, in the case of CGATAG it was 1.18.

The target in a further test is T2, ETS1 (UniProt P14921).
T2 sequence: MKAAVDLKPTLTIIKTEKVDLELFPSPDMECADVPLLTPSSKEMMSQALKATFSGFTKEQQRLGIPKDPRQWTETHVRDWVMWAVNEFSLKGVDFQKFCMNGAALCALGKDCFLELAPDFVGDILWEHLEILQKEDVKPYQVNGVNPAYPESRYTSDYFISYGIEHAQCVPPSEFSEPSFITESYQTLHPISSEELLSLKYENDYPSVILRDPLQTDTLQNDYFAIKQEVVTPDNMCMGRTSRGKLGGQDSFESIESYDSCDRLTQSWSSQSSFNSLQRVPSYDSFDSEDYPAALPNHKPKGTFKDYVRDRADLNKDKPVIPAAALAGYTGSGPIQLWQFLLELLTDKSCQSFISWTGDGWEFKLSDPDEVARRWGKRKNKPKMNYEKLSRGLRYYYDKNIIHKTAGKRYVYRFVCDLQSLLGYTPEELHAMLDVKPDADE
The description is as above. As to conditions: 10 mM Tris-HCl pH 7.5, 50 mM NaCl, 1 mM DTT, 4% glycerol, room temperature, 30 min; GST-TFs on glutathione beads, 16-mer random dsDNA library, 0.1% …; high values mean tight binding; double strand, one strand shown; scale: fold enrichment (6-mer frequency, TF over GST control).
Turning to TATACA, the binding signal is 1.31.
Still for that read-out and setting: next, ACCCTC: 1.19; CCTTAC: 1.37.
The sequence AACTCT gave a binding signal of 1.43.
In turn, CACGTA returned a binding signal of 1.1.
AGATGA came in with a binding signal of 1.1.
Sequence ACATGC gave a binding signal of 1.23.
Sequence CGTCCA yielded a binding signal of 1.09.
Consider GTTATA, for which the binding signal was 1.02.
Take AAGCGG: the binding signal was 1.09.
For the sequence AGGTTT, the binding signal is 1.07.
Turning to TTGGCT, the binding signal came to 1.1.
On the same count and under the same terms, next, TCTCTT: 1.46; GATGCG: 1.11.
Turning to CGGTTC, the binding signal was 1.11.
Turning to TGCGCA, the binding signal amounted to 1.14.
Regarding AGTGTT, the binding signal was determined as 1.05.
The sequence CAAATC returned a binding signal of 1.13.
Sequence GCTACA came in with a binding signal of 1.22.
With TTCCGG, the binding signal stood at 5.3.
Consider GAATGC, for which the binding signal turned out to be 1.01.
The sequence CCGCAA registered a binding signal of 1.37.
TATCAC gave a binding signal of 1.23.
On to ACCCTG, for which the binding signal is 1.15.
The same measure, in the same setting: next, GGTTGT: 0.938; TCATAC: 1.05; GTACAC: 1.21.
The sequence CCTTAA gave a binding signal of 1.41.
The sequence AGGATT showed a binding signal of 0.977.
The same measure, in the same setting: in the case of ATATAA it was 1.18; in that of CACACA, 1.17.
In turn, TACACT gave a binding signal of 1.65.
AGTCCT returned a binding signal of 1.07.
Still for that read-out and setting: next, CATGTA: 1.2.
TTATAT gave a binding signal of 1.33.
TTGGGC returned a binding signal of 1.05.
TCCATT registered a binding signal of 1.37.
Same read-out and setting: next, TGACGG: 0.945.
As for CGATAG, the binding signal was determined as 1.14.
